# Test results: the supplement of paper PMC12819154, “High-throughput peptide-centric local stability assay extends protein–ligand identification to membrane proteins, tissues and bacteria” (Nature Structural & Molecular Biology, 2025)
# Protein sequences, listed by entry. Tags and fused reporters are not part of them. Lines headed by an entry give the natural chain unless they say otherwise; changes in a name come on top.
# UniProt Q13829: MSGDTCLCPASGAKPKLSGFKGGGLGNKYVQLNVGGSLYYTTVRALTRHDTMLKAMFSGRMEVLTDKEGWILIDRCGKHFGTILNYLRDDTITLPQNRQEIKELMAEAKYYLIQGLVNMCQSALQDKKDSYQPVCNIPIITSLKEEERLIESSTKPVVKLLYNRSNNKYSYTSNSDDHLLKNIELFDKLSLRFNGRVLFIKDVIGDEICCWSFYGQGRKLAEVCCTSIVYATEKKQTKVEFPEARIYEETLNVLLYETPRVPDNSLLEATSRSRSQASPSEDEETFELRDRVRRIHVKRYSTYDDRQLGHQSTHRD
# UniProt Q14240, whole entry: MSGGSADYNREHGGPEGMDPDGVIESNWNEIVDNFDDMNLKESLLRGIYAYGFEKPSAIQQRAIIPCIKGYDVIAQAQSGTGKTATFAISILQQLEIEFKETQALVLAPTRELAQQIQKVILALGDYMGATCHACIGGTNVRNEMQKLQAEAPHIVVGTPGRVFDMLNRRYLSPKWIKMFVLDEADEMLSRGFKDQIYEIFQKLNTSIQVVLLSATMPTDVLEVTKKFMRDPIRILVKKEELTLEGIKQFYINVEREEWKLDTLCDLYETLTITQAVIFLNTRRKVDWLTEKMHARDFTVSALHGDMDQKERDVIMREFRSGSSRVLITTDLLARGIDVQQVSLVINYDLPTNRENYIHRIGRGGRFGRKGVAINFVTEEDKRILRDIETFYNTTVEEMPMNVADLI
# UniProt Q14790: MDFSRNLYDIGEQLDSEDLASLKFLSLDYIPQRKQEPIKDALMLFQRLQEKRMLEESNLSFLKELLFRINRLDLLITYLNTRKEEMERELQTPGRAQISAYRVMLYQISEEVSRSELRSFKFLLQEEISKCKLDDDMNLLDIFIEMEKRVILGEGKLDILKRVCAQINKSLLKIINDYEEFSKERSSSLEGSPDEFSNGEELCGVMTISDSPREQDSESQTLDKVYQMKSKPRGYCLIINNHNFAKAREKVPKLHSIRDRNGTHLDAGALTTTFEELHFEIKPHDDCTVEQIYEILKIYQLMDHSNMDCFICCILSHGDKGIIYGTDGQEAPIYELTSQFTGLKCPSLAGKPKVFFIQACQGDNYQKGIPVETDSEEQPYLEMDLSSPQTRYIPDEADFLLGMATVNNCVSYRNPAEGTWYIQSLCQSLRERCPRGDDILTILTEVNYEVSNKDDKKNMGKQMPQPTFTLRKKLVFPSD
# UniProt Q14159: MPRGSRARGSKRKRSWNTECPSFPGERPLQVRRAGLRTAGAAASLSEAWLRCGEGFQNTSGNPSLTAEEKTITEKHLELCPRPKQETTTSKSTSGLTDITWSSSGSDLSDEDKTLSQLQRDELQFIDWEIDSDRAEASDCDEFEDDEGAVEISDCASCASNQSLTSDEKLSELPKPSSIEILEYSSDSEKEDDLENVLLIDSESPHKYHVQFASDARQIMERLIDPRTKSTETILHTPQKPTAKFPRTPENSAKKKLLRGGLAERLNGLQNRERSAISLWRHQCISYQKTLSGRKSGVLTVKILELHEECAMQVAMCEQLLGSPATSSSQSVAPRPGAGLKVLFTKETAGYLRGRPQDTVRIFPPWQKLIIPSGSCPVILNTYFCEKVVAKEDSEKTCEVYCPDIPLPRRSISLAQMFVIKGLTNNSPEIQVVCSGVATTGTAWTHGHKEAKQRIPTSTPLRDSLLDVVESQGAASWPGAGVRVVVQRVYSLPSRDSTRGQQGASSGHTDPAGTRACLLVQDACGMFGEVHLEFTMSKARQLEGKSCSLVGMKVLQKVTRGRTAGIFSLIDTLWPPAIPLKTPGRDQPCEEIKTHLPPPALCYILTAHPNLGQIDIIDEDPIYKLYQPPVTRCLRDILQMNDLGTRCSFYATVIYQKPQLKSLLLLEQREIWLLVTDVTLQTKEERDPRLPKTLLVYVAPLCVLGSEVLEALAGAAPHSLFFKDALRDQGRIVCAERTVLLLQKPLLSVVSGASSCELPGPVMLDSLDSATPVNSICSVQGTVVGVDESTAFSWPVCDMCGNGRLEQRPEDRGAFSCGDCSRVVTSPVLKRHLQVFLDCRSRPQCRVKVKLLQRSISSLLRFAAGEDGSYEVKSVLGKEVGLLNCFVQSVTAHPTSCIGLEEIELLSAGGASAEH
# UniProt Q14145, whole entry: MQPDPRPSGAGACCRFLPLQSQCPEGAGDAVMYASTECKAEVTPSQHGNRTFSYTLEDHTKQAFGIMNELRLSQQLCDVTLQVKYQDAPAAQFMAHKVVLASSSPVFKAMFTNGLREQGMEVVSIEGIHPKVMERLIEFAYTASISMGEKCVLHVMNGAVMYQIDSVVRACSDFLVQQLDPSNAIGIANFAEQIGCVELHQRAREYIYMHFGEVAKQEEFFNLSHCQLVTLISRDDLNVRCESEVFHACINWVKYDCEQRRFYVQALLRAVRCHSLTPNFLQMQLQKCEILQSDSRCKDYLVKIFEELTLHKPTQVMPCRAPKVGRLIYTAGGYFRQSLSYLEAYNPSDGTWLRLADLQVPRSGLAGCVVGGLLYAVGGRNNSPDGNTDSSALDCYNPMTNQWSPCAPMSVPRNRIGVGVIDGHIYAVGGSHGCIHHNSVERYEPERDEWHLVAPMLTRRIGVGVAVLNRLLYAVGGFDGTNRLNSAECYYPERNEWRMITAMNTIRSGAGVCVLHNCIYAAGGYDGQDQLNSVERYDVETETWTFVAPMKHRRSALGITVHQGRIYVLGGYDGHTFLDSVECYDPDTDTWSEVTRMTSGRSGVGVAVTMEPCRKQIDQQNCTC
# UniProt Q15011: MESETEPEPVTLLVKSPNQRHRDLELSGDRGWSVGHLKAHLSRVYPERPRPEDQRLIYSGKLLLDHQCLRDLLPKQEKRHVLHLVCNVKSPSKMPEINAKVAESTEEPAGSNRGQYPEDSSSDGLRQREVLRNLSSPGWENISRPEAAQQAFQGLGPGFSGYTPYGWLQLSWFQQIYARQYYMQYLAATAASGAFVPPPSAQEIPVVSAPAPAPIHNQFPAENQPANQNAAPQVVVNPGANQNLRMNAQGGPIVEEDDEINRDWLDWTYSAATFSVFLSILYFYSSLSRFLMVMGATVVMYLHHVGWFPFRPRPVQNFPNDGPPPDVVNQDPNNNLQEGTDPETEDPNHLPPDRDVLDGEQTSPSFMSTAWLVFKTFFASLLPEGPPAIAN
# UniProt Q14CX7, whole entry: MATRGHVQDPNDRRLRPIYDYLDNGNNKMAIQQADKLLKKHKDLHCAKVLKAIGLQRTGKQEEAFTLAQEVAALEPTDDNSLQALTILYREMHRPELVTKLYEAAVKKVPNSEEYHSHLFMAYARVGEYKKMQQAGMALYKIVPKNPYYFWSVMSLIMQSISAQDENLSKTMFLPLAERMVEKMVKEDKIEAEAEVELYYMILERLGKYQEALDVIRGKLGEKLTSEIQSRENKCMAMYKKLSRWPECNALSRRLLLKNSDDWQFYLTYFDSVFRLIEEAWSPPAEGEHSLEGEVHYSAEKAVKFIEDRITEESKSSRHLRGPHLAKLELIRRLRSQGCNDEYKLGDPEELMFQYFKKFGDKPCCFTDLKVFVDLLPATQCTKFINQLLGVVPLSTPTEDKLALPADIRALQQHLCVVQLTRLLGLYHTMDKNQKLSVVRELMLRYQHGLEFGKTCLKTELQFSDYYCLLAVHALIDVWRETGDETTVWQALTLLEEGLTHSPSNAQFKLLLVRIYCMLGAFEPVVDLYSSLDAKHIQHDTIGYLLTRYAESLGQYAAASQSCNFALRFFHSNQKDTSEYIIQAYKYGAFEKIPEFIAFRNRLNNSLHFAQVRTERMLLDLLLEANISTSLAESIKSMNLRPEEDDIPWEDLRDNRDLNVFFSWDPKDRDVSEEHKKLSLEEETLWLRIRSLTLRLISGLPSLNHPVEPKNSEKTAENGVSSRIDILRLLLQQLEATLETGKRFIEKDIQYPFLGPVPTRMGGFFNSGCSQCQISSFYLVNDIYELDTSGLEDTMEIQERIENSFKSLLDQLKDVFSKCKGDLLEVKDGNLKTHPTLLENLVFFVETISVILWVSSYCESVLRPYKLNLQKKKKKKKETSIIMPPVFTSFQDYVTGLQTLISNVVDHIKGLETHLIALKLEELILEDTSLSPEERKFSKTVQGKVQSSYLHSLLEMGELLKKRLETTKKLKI
# UniProt Q14690: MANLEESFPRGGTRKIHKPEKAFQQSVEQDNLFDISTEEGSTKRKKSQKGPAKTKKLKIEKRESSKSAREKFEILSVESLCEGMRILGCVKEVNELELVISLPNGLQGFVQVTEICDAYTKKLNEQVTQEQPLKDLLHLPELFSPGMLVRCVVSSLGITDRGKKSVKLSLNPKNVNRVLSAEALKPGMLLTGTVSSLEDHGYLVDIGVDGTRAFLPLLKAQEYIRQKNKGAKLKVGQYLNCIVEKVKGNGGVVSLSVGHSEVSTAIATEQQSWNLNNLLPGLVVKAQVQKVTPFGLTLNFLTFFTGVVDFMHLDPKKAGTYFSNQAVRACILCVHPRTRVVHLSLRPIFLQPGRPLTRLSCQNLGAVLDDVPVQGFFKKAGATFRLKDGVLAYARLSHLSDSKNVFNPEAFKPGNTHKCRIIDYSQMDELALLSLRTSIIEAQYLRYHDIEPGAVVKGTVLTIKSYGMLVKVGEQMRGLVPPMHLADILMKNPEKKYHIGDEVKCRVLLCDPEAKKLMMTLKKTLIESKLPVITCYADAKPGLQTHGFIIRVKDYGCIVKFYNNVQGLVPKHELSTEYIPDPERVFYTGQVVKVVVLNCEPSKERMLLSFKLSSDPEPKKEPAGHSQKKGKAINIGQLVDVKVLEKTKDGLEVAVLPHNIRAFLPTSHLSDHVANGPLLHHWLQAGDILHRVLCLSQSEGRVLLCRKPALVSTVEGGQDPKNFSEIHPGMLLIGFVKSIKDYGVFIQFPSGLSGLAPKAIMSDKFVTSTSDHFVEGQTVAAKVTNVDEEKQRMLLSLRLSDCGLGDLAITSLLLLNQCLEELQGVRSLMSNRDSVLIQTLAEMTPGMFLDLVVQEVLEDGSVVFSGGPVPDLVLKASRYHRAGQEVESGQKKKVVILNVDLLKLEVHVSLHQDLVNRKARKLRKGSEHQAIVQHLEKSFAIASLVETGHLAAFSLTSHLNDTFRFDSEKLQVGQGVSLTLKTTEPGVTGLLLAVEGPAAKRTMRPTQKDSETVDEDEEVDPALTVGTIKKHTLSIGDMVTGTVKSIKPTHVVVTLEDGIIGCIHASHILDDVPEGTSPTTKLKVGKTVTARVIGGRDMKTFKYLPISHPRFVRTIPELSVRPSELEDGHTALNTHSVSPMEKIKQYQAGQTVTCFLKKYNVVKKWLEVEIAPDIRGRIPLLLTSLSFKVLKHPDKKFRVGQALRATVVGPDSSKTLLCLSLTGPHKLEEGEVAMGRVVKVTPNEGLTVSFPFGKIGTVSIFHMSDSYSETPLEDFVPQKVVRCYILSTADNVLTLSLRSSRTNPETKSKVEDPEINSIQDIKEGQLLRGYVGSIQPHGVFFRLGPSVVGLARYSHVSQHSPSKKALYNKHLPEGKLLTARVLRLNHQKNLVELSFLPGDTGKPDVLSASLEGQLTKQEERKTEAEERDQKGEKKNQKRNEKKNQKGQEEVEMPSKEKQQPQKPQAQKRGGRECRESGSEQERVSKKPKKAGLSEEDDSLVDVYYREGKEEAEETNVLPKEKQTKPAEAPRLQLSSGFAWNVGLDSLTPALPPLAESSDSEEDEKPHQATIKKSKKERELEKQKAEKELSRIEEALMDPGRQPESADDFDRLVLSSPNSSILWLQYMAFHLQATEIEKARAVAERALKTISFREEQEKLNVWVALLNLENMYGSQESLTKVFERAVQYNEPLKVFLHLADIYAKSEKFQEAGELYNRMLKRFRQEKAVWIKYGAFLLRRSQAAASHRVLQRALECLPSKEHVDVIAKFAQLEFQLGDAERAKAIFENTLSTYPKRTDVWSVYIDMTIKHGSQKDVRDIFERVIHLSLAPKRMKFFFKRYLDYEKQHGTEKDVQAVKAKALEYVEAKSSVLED
# UniProt Q14653: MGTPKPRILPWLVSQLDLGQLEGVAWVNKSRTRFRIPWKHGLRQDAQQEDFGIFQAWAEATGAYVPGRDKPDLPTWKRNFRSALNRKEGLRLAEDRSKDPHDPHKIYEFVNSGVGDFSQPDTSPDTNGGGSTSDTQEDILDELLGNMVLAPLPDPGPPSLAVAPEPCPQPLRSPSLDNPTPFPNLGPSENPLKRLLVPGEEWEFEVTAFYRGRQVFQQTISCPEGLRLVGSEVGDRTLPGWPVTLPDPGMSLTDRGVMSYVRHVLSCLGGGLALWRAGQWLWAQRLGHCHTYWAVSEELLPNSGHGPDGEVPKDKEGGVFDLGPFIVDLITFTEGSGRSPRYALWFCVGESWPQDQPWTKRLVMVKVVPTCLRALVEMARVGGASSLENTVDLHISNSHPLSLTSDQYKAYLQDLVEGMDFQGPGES
# UniProt Q13636: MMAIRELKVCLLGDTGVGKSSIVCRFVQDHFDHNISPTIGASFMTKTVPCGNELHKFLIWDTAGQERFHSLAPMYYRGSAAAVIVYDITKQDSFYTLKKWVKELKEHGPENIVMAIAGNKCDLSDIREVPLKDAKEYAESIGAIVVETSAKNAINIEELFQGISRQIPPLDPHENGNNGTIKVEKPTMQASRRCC
# Some of the results follow. Most entries show no effect beyond the scatter of the controls.
# Compound: CN[C@@H]1C[C@H]2O[C@@](C)([C@@H]1OC)n1c3ccccc3c3c4c(c5c6ccccc6n2c5c31)C(=O)NC4 [staurosporine]
# Test: log2 fold change of tryptic peptide abundance, ligand vs vehicle (limited proteolysis) (log2 ratio); higher = more trypsin-susceptible (destabilized)
# Conditions: ligand concentration: 20 uM; sample: K562 cleared lysate; digestion: 4 min, 22 C (HT-PELSA RT4min, Orbitrap Astral)
row,Target,log2 fold change
1,"DHRS2 (peptide sequence: VNCVVPGIIKTDFSK, peptide start residue: 210) (UniProt Q13268)",-0.366
2,"USP10 (peptide sequence: IEFGVDEVIEPSDTLPR, peptide start residue: 57) (UniProt Q14694)",-0.19
3,"SCRIB (peptide sequence: DATHQEAVSALLRPCLELSLLVR, peptide start residue: 1068) (UniProt Q14160)",0.396
4,"GOLGA4 (peptide sequence: KEQELTKK, peptide start residue: 492) (UniProt Q13439)",0.493
5,"UniProt Q14289 (peptide sequence: YLPEDFMESLKEDR, peptide start residue: 135)",-0.236
6,"STIM1 (peptide sequence: DLTHSDSESSLHMSDR, peptide start residue: 515) (UniProt Q13586)",-0.162
7,"ITPK1 (peptide sequence: VFVVGESYTVVQRPSLK, peptide start residue: 200) (UniProt Q13572)",0.53
8,"TNFAIP1 (peptide sequence: MEVLTDKEGWILIDR, peptide start residue: 61) (UniProt Q13829)",0.437
9,"UniProt Q15018 (peptide sequence: QMPSESLDPAFSPR, peptide start residue: 269)",-0.249
10,"UniProt Q14240 (peptide sequence: LQAEAPHIVVGTPGR, peptide start residue: 148)",0.372
11,"PSMD2 (peptide sequence: FLRPHYGK, peptide start residue: 98) (UniProt Q13200)",0.326
12,"CASP8 (peptide sequence: QEPIKDALMLFQR, peptide start residue: 35) (UniProt Q14790)",0.358
13,"CBX3 (peptide sequence: SLSDSESDDSKSK, peptide start residue: 93) (UniProt Q13185)",-0.254
14,"TTLL4 (peptide sequence: MSTVTPNIVK, peptide start residue: 611) (UniProt Q14679)",0.415
15,"PEX6 (peptide sequence: IPSVSWHDVGGLQEVKK, peptide start residue: 699) (UniProt Q13608)",1.79
16,"FAT1 (peptide sequence: ELDHEKR, peptide start residue: 2874) (UniProt Q14517)",0.000925
17,"TP53BP2 (peptide sequence: VPPPVPTKPK, peptide start residue: 498) (UniProt Q13625)",0.265
18,"UniProt Q14159 (peptide sequence: HQCISYQK, peptide start residue: 282)",0.126
19,"KEAP1 (peptide sequence: CKDYLVK, peptide start residue: 297) (UniProt Q14145)",0.245
20,"HERPUD1 (peptide sequence: HVLHLVCNVK, peptide start residue: 80) (UniProt Q15011)",-0.0872
21,"PUM1 (peptide sequence: IRPHIATLR, peptide start residue: 1144) (UniProt Q14671)",0.584
22,"SMAD4 (peptide sequence: CDSVCVNPYHYER, peptide start residue: 123) (UniProt Q13485)",-0.0691
23,"UniProt Q14CX7 (peptide sequence: KMQQAGMALYK, peptide start residue: 131)",1.02
24,"VGLL4 (peptide sequence: MQTLPVASALSSHR, peptide start residue: 32) (UniProt Q14135)",0.341
25,"PPIG (peptide sequence: EFLLSMANR, peptide start residue: 107) (UniProt Q13427)",-0.382
26,"PDCD11 (peptide sequence: KGSEHQAIVQHLEK, peptide start residue: 924) (UniProt Q14690)",-1.24
27,"IRF3 (peptide sequence: SKDPHDPHK, peptide start residue: 97) (UniProt Q14653)",0.0657
28,"RAB31 (peptide sequence: VEKPTMQASR, peptide start residue: 182) (UniProt Q13636)",0.139

# Single values from the entries so far:
# log2 fold change with PSMD2 (peptide sequence: FLRPHYGK, peptide start residue: 98) (UniProt Q13200) is entered as 0.326
# log2 fold change with PDCD11 (peptide sequence: KGSEHQAIVQHLEK, peptide start residue: 924) (UniProt Q14690) is entered as -1.24
